# Assay results taken from the supplement of paper PMC8728848.
# This is one part of the list.
# Legend:
# Experiment in all cases: glycan array binding signal (z-score within array); higher = stronger binding
# Conditions in all cases: glycan notation: IUPAC condensed, linker removed
# Gal4S(b1-4)GlcNAc = target: Gal4S(b1-4)GlcNAc
# Method in brief: (§1)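 Glycan array data came from 3228 arrays in the Consortium for Functional Glycomics database, and only arrays with an available protein sequence were kept. Glycan names were put into IUPAC-condensed notation, and columns mapping to the same glycan were averaged. The binding signal is a within-array Z-score, averaged across arrays of one protein sequence run at different concentrations or buffers and across linkers. A negative Z-score can be read as non-binding.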
# Gal4S6S(b1-4)GlcNAc = target: Gal4S6S(b1-4)GlcNAc
# Method in brief: as §1
# Gal6S(b1-4)Glc = target: Gal6S(b1-4)Glc
# Method in brief: as §1
# Gal6S(b1-4)Glc6S = target: Gal6S(b1-4)Glc6S
# Method in brief: as §1
# Gal6S(b1-4)GlcNAc = target: Gal6S(b1-4)GlcNAc
# Method in brief: as §1
# Gal6S(b1-4)GlcNAc6S = target: Gal6S(b1-4)GlcNAc6S
# Method in brief: as §1
# GalNAc(a1-3)Gal = target: GalNAc(a1-3)Gal
# Method in brief: as §1
# GalNAc(a1-3)GalNAc = target: GalNAc(a1-3)GalNAc
# Method in brief: as §1
# GalNAc(b1-3)Gal = target: GalNAc(b1-3)Gal
# Method in brief: as §1
# [1] = target: GalNAc(b1-3)Gal(a1-4)Gal(b1-4)GlcNAc
# Method in brief: as §1
# [2] = target: GalNAc(b1-3)Gal(a1-4)Gal(b1-4)GlcNAc(b1-3)Gal(b1-4)Glc
# Method in brief: as §1
# GalNAc(b1-3)GalNAc = target: GalNAc(b1-3)GalNAc
# Method in brief: as §1
# GalNAc(b1-4)GlcNAc = target: GalNAc(b1-4)GlcNAc
# Method in brief: as §1
# [3] = target: GalNAc(b1-4)GlcNAc(b1-2)Man(a1-3)[GalNAc(b1-4)GlcNAc(b1-2)Man(a1-6)]Man(b1-4)GlcNAc(b1-4)GlcNAc
# Method in brief: as §1
# Glc(a1-4)Glc = target: Glc(a1-4)Glc
# Method in brief: as §1
# Glc(a1-6)Glc(a1-6)Glc = target: Glc(a1-6)Glc(a1-6)Glc
# Method in brief: as §1
# Glc(b1-4)Glc = target: Glc(b1-4)Glc
# Method in brief: as §1
# Glc(b1-6)Glc = target: Glc(b1-6)Glc
# Method in brief: as §1
# GlcA(b1-3)Gal = target: GlcA(b1-3)Gal
# Method in brief: as §1
# GlcA(b1-3)GlcNAc = target: GlcA(b1-3)GlcNAc
# Method in brief: as §1
# GlcA(b1-6)Gal = target: GlcA(b1-6)Gal
# Method in brief: as §1
# [4] = target: GlcNAc(a1-3)Gal(b1-4)GlcNAc
# Method in brief: as §1
# [5] = target: GlcNAc(a1-4)Gal(b1-3)GlcNAc
# Method in brief: as §1
# [6] = target: GlcNAc(a1-4)Gal(b1-4)GalNAc
# Method in brief: as §1
# [7] = target: GlcNAc(a1-4)Gal(b1-4)GlcNAc
# Method in brief: as §1
# [8] = target: GlcNAc(a1-4)Gal(b1-4)GlcNAc(b1-3)Gal(b1-4)Glc
# Method in brief: as §1
# [9] = target: GlcNAc(a1-4)Gal(b1-4)GlcNAc(b1-3)Gal(b1-4)GlcNAc
# Method in brief: as §1
# [10] = target: GlcNAc(a1-4)Gal(b1-4)GlcNAc(b1-3)Gal(b1-4)GlcNAc(b1-3)Gal(b1-4)GlcNAc
# Method in brief: as §1
# [11] = target: GlcNAc(a1-4)Gal(b1-4)GlcNAc(b1-3)Gal(b1-4)[Fuc(a1-3)]GlcNAc(b1-3)Gal(b1-4)[Fuc(a1-3)]GlcNAc
# Method in brief: as §1
# [12] = target: GlcNAc(a1-6)Gal(b1-4)GlcNAc
# Method in brief: as §1
# [13] = target: GlcNAc(b1-2)Gal(b1-3)GalNAc
# Method in brief: as §1
# [14] = target: GlcNAc(b1-2)Man(a1-3)[GlcNAc(b1-2)Man(a1-6)]Man(b1-4)GlcNAc(b1-4)GlcNAc
# Method in brief: as §1
# [15] = target: GlcNAc(b1-2)Man(a1-3)[GlcNAc(b1-2)Man(a1-6)]Man(b1-4)GlcNAc(b1-4)[Fuc(a1-6)]GlcNAc
# Method in brief: as §1
# GlcNAc(b1-3)Gal = target: GlcNAc(b1-3)Gal
# Method in brief: as §1
# [16] = target: GlcNAc(b1-3)Gal(b1-3)GalNAc
# Method in brief: as §1
# GlcNAc(b1-3)Gal(b1-4)Glc = target: GlcNAc(b1-3)Gal(b1-4)Glc
# Method in brief: as §1
# [17] = target: GlcNAc(b1-3)Gal(b1-4)GlcNAc
# Method in brief: as §1
binder,measurement,setting,value
"Adiponectin (Rattus norvegicus), Q8K3R4 (protein) MLLLQALLFLLILPSHEGITATEGPGALVPPPKETCAGWMAGIPGYPGHNGIPGRDGRDGTPGEKGEKGDAGVLGPKGDPGDAGMTGAEGPRGFPGTPGRKGEPGEAAYMYHSAFSVGLETRVTVPNVPIRFTKIFYNQQNHYDGSTGKFHCNIPGLYYFSYHITVYMKDVKVSLFKKDKAVLFTYDQYQEKNVDQASGSMLLHLEVGDQVWLQVYGEGDNNGLYADNVNDSTFTGFLLYHDTN",glycan array binding signal (z-score),Gal4S(b1-4)GlcNAc,0.272
same,glycan array binding signal (z-score),Gal4S6S(b1-4)GlcNAc,1.12
same,glycan array binding signal (z-score),Gal6S(b1-4)Glc,-0.001
same,glycan array binding signal (z-score),Gal6S(b1-4)Glc6S,-0.053
same,glycan array binding signal (z-score),Gal6S(b1-4)GlcNAc,1.04
same,glycan array binding signal (z-score),Gal6S(b1-4)GlcNAc6S,-0.915
same,glycan array binding signal (z-score),GalNAc(a1-3)Gal,2.96
same,glycan array binding signal (z-score),GalNAc(a1-3)GalNAc,-0.694
same,glycan array binding signal (z-score),GalNAc(b1-3)Gal,-1.15
same,glycan array binding signal (z-score),[1],-0.627
same,glycan array binding signal (z-score),[2],-0.299
same,glycan array binding signal (z-score),GalNAc(b1-3)GalNAc,0.663
same,glycan array binding signal (z-score),GalNAc(b1-4)GlcNAc,-0.696
same,glycan array binding signal (z-score),[3],4.32
same,glycan array binding signal (z-score),Glc(a1-4)Glc,-0.624
same,glycan array binding signal (z-score),Glc(a1-6)Glc(a1-6)Glc,-1.2
same,glycan array binding signal (z-score),Glc(b1-4)Glc,-0.947
same,glycan array binding signal (z-score),Glc(b1-6)Glc,-0.479
same,glycan array binding signal (z-score),GlcA(b1-3)Gal,0.328
same,glycan array binding signal (z-score),GlcA(b1-3)GlcNAc,-0.577
same,glycan array binding signal (z-score),GlcA(b1-6)Gal,-0.389
same,glycan array binding signal (z-score),[4],-0.969
same,glycan array binding signal (z-score),[5],-0.476
same,glycan array binding signal (z-score),[6],-0.534
same,glycan array binding signal (z-score),[7],-0.064
same,glycan array binding signal (z-score),[8],-0.988
same,glycan array binding signal (z-score),[9],-1.28
same,glycan array binding signal (z-score),[10],-0.58
same,glycan array binding signal (z-score),[11],-1.1
same,glycan array binding signal (z-score),[12],-0.43
same,glycan array binding signal (z-score),[13],-0.35
same,glycan array binding signal (z-score),[14],1.15
same,glycan array binding signal (z-score),[15],-0.628
same,glycan array binding signal (z-score),GlcNAc(b1-3)Gal,-1.05
same,glycan array binding signal (z-score),[16],0.75
same,glycan array binding signal (z-score),GlcNAc(b1-3)Gal(b1-4)Glc,0.226
same,glycan array binding signal (z-score),[17],-0.409

# Retrieved one by one from the list above (3):
binder,measurement,setting,value
"Adiponectin (Rattus norvegicus), Q8K3R4 (protein) MLLLQALLFLLILPSHEGITATEGPGALVPPPKETCAGWMAGIPGYPGHNGIPGRDGRDGTPGEKGEKGDAGVLGPKGDPGDAGMTGAEGPRGFPGTPGRKGEPGEAAYMYHSAFSVGLETRVTVPNVPIRFTKIFYNQQNHYDGSTGKFHCNIPGLYYFSYHITVYMKDVKVSLFKKDKAVLFTYDQYQEKNVDQASGSMLLHLEVGDQVWLQVYGEGDNNGLYADNVNDSTFTGFLLYHDTN",glycan array binding signal (z-score),[12],-0.43
same,glycan array binding signal (z-score),GalNAc(b1-3)GalNAc,0.663
same,glycan array binding signal (z-score),[10],-0.58
